One assay deals with HA-p62 (UniProt Q13501). In words: affinity purification with mass spectrometry; HA-p62 immunoprecipitates from HeLa cells against IgG control, with and without arsenite, LC-MS/MS, SAINT.
In assay [1] the target is T1, C9ORF72 (human (endogenous in HeLa)) (UniProt Q96LT7).
T1 sequence: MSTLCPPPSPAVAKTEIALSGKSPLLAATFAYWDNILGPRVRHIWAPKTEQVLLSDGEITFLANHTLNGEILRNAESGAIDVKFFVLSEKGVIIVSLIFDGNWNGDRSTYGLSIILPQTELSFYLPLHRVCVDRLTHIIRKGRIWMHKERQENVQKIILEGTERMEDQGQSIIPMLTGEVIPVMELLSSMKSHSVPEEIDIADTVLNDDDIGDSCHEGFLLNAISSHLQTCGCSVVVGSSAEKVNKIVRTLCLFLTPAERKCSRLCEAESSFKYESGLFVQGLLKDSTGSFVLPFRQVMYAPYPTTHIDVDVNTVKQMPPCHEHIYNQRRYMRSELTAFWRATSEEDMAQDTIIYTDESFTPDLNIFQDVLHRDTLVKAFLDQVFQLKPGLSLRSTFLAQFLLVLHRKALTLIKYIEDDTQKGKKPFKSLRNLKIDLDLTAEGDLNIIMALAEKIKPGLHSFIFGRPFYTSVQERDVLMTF
Put plainly: affinity purification with mass spectrometry; endogenous C9ORF72 immunoprecipitates from HeLa cells against IgG controls, three biological replicates, LC-MS/MS, SAINT (BFDR < 0.05); arsenite-treated and untreated cells.

Protein sequences, listed by entry. Tags and fused reporters are not part of them.
UniProt O00571: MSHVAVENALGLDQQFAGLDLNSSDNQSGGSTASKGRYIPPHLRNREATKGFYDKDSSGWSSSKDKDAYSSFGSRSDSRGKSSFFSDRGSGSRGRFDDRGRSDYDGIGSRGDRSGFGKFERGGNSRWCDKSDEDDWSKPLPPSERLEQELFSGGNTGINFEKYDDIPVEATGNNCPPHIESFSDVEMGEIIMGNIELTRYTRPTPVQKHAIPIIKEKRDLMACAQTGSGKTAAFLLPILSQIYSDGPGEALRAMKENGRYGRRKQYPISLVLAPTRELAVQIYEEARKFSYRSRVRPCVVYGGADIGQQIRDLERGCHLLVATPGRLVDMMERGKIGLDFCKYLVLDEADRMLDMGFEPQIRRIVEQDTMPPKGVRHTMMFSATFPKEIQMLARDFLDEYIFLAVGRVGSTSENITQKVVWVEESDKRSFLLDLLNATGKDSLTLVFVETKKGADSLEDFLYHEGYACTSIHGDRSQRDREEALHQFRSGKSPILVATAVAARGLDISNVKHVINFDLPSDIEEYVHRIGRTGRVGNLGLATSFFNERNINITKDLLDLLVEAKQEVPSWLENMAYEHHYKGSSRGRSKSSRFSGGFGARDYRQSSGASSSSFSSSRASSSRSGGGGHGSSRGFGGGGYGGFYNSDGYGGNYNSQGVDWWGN
UniProt P35637: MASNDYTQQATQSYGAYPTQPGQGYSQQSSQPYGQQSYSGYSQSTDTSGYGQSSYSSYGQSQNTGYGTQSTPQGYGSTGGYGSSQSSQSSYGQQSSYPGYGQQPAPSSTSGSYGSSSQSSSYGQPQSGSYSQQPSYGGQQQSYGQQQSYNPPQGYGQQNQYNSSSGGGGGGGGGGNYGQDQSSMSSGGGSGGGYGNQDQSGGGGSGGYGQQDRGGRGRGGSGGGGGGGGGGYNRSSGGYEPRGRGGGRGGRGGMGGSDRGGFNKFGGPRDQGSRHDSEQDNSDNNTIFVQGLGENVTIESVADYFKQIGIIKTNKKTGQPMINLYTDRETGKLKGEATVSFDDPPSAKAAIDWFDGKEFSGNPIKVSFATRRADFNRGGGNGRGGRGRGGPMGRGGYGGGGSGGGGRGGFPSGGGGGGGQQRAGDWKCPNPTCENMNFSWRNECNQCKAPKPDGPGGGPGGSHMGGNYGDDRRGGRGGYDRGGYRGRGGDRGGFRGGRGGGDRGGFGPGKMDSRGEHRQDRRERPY

This passage reports binding results from PMC6052026.

Results are given in words; binding and its absence hold for the method and conditions named. In cells and extracts the contact can be indirect. Here binding means that the protein was enriched with, or labelled near, the bait; the list need not be complete.

DDX3 (from UniProt O00571 1-662): in the assay with HA-p62, the binding entry is recorded as “binds”.

As for FUS (from UniProt P35637 1-526), in assay [1], the binding result was “binds”.
